Data from the supplement of paper PMC7666118.
This is one part of the list.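 Rule for the calls: active = dose-dependent thermal stabilisation significant by F-test of dose-response against flat model at 10% FDR; inactive = not significant.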

Sequences of proteins named here, by UniProt entry; tags and fusion partners are left off. A change or cut given only in a name is not applied to a line headed by its entry.
UniProt Q14974, whole entry: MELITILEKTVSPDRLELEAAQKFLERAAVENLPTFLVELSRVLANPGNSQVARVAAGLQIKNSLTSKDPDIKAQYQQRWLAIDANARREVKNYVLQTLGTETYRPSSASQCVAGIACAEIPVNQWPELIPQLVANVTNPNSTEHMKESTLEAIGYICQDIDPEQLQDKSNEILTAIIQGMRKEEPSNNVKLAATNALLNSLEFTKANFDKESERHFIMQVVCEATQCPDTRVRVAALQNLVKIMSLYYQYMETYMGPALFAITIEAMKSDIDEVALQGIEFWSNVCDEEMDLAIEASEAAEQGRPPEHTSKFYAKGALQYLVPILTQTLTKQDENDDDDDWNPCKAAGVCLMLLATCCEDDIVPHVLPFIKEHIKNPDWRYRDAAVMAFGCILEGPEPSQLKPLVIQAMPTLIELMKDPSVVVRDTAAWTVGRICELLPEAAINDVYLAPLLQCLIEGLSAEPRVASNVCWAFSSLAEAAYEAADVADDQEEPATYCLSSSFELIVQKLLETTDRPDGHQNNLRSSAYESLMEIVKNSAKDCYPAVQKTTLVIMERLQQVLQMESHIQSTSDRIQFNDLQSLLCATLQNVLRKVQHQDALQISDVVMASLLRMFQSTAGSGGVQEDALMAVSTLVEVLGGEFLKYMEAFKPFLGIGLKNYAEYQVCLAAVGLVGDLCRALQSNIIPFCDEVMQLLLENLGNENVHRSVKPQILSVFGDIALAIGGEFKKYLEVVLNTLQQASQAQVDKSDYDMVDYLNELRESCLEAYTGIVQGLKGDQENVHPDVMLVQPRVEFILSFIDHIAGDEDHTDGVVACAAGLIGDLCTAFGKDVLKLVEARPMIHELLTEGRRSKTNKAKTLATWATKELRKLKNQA
UniProt Q1KMD3: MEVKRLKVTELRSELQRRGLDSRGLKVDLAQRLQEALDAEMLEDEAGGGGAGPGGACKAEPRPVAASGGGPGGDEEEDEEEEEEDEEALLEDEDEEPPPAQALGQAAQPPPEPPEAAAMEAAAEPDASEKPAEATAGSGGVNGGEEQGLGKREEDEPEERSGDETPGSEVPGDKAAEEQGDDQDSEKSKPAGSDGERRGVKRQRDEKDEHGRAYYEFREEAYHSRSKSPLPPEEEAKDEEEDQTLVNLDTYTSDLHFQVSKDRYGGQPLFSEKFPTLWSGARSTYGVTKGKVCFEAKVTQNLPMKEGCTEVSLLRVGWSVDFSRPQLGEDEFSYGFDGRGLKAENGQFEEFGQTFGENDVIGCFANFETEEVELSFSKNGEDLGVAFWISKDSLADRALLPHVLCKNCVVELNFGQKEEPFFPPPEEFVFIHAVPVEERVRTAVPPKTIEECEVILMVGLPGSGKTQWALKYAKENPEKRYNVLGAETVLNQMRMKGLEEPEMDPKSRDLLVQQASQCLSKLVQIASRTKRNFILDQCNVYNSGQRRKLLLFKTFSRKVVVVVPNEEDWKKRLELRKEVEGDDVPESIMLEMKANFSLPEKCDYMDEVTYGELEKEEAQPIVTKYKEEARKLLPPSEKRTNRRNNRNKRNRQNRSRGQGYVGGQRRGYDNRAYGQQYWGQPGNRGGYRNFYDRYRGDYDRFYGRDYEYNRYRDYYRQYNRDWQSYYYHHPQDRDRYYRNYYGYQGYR
UniProt P48735: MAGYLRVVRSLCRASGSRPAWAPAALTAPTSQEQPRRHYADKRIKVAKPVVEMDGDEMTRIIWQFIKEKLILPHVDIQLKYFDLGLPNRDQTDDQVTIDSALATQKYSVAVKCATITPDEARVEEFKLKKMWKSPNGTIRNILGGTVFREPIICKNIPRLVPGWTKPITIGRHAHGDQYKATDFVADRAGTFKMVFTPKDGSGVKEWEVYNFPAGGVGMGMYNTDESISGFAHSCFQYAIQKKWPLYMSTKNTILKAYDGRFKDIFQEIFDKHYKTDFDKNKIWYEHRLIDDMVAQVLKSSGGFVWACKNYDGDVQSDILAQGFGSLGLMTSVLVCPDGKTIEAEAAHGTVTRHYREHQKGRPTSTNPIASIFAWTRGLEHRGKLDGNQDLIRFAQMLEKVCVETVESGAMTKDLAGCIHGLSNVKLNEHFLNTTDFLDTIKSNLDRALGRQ
UniProt Q16666: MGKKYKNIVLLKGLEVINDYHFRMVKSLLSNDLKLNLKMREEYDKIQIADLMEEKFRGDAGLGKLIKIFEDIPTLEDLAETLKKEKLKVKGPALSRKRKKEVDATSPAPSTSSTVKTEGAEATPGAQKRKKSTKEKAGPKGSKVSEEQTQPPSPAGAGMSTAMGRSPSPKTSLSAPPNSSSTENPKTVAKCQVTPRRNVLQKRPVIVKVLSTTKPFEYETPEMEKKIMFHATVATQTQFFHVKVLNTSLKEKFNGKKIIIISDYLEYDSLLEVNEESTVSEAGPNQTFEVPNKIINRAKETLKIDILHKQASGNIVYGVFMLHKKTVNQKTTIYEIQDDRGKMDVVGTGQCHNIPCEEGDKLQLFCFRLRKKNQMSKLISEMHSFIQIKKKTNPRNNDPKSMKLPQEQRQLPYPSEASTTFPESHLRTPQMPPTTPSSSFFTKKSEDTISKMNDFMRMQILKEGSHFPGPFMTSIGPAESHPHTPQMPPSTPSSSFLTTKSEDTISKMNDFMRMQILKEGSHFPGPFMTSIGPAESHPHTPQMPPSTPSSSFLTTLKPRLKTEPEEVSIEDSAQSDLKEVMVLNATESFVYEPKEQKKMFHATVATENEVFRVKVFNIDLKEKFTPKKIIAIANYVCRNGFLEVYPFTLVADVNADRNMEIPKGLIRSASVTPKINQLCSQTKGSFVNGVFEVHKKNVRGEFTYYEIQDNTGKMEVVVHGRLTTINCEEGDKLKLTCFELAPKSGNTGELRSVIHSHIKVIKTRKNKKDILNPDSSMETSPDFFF
UniProt Q7Z5L9: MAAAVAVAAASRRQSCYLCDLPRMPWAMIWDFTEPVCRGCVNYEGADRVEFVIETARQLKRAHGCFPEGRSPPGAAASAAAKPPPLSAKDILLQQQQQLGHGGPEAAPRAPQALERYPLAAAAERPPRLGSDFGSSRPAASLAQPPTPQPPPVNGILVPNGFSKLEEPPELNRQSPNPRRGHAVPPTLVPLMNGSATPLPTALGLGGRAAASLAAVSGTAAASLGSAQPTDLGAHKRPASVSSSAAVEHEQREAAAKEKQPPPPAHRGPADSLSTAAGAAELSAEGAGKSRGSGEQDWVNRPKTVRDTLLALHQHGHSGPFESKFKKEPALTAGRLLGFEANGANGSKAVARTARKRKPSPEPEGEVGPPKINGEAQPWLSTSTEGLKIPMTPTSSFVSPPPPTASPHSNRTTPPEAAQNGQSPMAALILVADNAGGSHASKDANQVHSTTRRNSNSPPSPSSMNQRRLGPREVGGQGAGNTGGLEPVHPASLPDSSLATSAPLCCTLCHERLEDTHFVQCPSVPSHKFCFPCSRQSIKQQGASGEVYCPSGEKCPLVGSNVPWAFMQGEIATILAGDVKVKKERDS
UniProt Q86U70: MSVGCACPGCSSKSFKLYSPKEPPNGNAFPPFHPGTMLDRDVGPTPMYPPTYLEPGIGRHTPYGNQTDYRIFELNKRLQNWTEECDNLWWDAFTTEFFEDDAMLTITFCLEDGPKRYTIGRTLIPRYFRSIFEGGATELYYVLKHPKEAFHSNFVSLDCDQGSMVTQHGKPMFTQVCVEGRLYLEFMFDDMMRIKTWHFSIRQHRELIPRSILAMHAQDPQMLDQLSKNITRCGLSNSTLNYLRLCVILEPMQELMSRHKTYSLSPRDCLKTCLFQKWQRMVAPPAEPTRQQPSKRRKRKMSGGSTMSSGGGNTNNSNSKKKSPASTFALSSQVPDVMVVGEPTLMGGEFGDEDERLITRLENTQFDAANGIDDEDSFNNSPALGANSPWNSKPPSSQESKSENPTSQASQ
UniProt Q13094: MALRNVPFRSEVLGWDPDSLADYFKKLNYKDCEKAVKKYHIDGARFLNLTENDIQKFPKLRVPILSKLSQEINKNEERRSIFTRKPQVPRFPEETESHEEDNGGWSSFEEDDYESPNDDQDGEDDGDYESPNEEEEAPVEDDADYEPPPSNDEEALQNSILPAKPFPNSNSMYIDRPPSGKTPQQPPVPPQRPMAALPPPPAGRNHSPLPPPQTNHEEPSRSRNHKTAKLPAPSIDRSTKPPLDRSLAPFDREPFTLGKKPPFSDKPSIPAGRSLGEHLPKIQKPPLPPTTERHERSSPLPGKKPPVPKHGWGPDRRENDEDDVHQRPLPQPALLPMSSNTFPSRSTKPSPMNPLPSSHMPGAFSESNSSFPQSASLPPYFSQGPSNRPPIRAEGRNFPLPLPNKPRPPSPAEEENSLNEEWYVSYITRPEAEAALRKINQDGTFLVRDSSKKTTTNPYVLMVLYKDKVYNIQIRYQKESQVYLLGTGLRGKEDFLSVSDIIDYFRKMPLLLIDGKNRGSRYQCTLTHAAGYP
UniProt Q00839, whole entry: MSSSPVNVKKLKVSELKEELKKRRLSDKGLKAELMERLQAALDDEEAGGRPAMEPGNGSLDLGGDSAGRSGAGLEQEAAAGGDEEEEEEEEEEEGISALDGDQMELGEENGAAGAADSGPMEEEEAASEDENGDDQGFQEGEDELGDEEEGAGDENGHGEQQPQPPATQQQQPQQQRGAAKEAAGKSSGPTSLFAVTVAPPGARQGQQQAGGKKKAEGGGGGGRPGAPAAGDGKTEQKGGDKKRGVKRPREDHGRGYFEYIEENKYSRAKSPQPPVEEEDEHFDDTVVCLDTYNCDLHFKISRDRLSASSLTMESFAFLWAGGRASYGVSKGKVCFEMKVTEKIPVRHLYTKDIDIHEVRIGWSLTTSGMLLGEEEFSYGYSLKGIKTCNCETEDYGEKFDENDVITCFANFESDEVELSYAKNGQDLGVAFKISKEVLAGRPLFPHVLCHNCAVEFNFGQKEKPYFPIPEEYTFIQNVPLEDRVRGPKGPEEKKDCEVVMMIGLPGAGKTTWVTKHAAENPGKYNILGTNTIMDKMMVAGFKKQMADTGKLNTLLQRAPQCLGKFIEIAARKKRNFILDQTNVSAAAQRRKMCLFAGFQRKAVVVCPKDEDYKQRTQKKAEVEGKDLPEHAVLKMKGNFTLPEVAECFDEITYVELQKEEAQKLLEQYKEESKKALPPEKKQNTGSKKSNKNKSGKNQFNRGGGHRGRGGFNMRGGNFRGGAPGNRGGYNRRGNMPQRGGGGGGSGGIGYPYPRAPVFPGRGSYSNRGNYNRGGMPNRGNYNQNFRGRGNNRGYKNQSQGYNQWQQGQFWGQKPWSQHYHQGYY
UniProt Q9P0J7: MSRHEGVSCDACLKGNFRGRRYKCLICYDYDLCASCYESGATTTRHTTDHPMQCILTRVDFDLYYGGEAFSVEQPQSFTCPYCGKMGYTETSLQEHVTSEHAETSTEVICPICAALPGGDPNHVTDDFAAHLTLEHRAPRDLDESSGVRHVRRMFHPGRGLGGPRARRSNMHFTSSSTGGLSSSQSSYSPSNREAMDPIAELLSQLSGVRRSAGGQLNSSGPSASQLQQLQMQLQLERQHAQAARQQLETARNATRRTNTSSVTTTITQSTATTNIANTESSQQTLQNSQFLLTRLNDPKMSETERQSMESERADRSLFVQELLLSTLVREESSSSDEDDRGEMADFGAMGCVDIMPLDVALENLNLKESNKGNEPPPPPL
UniProt P52272: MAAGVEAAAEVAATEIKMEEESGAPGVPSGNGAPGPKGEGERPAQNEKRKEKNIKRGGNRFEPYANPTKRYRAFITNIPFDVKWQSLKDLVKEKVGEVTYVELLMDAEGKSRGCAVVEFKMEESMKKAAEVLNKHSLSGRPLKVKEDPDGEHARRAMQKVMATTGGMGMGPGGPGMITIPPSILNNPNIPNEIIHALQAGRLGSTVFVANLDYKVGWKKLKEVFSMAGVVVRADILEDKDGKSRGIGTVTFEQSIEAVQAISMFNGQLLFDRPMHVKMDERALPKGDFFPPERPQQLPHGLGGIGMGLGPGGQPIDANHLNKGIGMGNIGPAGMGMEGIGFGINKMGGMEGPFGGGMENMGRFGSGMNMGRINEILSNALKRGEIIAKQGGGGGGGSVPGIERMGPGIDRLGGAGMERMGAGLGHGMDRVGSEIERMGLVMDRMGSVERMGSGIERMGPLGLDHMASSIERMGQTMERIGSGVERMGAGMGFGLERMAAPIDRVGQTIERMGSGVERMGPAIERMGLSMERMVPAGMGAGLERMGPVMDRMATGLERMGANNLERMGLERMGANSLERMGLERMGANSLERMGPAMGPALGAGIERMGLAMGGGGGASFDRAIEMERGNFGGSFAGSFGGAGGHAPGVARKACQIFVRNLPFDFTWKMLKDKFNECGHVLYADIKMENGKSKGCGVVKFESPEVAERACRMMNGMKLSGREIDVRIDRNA
UniProt Q9BXK1: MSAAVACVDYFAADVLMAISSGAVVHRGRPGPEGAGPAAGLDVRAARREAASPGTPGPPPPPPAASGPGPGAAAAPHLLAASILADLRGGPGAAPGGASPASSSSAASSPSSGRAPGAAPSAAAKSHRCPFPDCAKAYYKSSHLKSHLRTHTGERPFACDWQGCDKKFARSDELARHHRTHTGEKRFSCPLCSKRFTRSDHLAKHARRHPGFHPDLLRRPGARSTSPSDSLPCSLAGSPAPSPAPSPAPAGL

Compound: Nc1nc2c(ncn2[C@@H]2O[C@H](COP(=O)(O)OP(=O)(O)OP(=O)(O)O)[C@@H](O)[C@H]2O)c(=O)[nH]1
Experiment: dose-dependent thermal stabilisation call (2D-TPP, DLPTP, 10% FDR) (binary (1 = stabilised)); higher = stabilised by the compound
Conditions: system: Jurkat gel-filtered lysate; concentration range 1-500 µM

Target | dose-dependent thermal stabilisation call
KIAA1211 (UniProt Q6ZU35) | inactive: 0
LIN9 (UniProt Q5TKA1) | inactive: 0
KPNB1 (UniProt Q14974) | active: 1
HNRNPUL2 (UniProt Q1KMD3) | inactive: 0
LRBA (UniProt P50851) | inactive: 0
IDH3A (UniProt P50213) | active: 1
IDH2 (UniProt P48735) | inactive: 0
IFI16 (UniProt Q16666) | inactive: 0
IPO4 (UniProt Q8TEX9) | inactive: 0
KNTC1 (UniProt P50748) | active: 1
HSPA4L (UniProt O95757) | active: 1
IRF2BP2 (UniProt Q7Z5L9) | inactive: 0
LDB1 (UniProt Q86U70) | inactive: 0
KAZN (UniProt Q674X7) | inactive: 0
KIF5B (UniProt P33176) | active: 1
LANCL2 (UniProt Q9NS86) | inactive: 0
LARP4B (UniProt Q92615) | inactive: 0
LCP2 (UniProt Q13094) | inactive: 0

A different layout for some results above.

| Target | dose-dependent thermal stabilisation call |
| --- | --- |
| IFI16 (UniProt Q16666) | inactive: 0 |
| KNTC1 (UniProt P50748) | active: 1 |

More records:

Target | dose-dependent thermal stabilisation call
ILK (UniProt Q13418) | active: 1
HNRNPU (UniProt Q00839) | active: 1
KIF11 (UniProt P52732) | inactive: 0
KCMF1 (UniProt Q9P0J7) | inactive: 0
HPCAL1 (UniProt P37235) | inactive: 0
IDH1 (UniProt O75874) | inactive: 0
JUND (UniProt P17535) | inactive: 0
ISY1 (UniProt Q9ULR0) | inactive: 0
HSPBP1 (UniProt Q9NZL4) | inactive: 0
KXD1 (UniProt Q9BQD3) | inactive: 0
LARP7 (UniProt Q4G0J3) | active: 1
HSF1 (UniProt Q00613) | inactive: 0
ITPKB (UniProt P27987) | inactive: 0
HNRNPM (UniProt P52272) | inactive: 0
LIN37 (UniProt Q96GY3) | inactive: 0
KYAT3 (UniProt Q6YP21) | inactive: 0
HSD17B10 (UniProt Q99714) | active: 1
KLF16 (UniProt Q9BXK1) | inactive: 0
